At least one structure is not confirmed: it was looked up by name or label, or the drawing left a doubt.
Target: T1, NS5PolDV (Dengue virus type 2, UniProt P14340)
T1 construct: The junction (or where the Pol domain starts) is located at amino acid 272; His-tag; made in house; host or cells: E. coli BL21[pDNAy], plasmid pQE30
Assay: RNA polymerase activity of NS5PolDV on homopolymeric template poly(rC), [3H]-GTP incorporation
Assay type: biochemical, Dengue virus (subtype 2, Strain New Guinea C)
Conditions: NS5PolDV (oligomeric preparation) 64 nM; poly(rC) with primer rGG; control reaction
Method: Activity was tested on three homopolymeric templates: poly(rC), poly(rU) and poly(rA). Only poly(rC) resulted to be a productive template for NS5PolDV. This was illustrated in FIG. 4 based on the following protocol: RNA polymerase activity was tested on a homopolymeric RNA template (polycytidylic acid, Amersham Biosciences) of an average length of 360 nt. A standard assay was carried out in 50 mM HEPES buffer, pH 8.0, 10 mM KCl, 5 mM MgCl2, 5 mM MnCl2, 10 mM DTT containing 1 μM template, […] primer GG, 10 μM GTP, 0.01 mCi [3H]-GTP per μl reaction mixture and the concentration of enzyme given below. Reactions were carried out at 30° C. for given time periods and stopped by spotting a sample on DEAE filter discs (Whatman) presoaked with 50 mM EDTA. […] Liquid scintillation fluid was added and incorporation in counts per minute (cpm) determined by using a Wallac MicroBeta TriLux Liquid Scintillation Counter. […]
In FIG. 5, the steady-state Km determination of GTP with various ligands was performed as follows: RNA polymerase activity was tested under conditions given in the description set forth above in the experiments related to FIG. 4 without the use of a primer. Initial velocities were determined over a time period of 5 min. […]
Initial velocities were determined on poly(rC) at 10 mM GTP and compared to corresponding values without inhibitor. […]

In the case of `CO[C@H]1/C=C/O[C@@]2(C)Oc3c(C)c(O)c4c(O)c(c(/C=N/N5CCN(C)CC5)c(O)c4c3C2=O)NC(=O)/C(C)=C\C=C\[C@H](C)[C@H](O)[C@@H](C)[C@@H](O)[C@@H](C)[C@H](OC(C)=O)[C@@H]1C` [rifampicin], the “Inhibitory effect on incorporation of radioactively labeled GTP” value is reported as “did not show any inhibitory effect”.
